Test [1] deals with ARF-BP1 (E3 ubiquitin ligase encoded by HUWE1), endogenous in mouse B cell lymphoma cell lines (mouse (endogenous in SBL, DBLL and MZL-derived cell lines)) (UniProt Q7TMY8). The experiment in a line: co-IP; lysates of mouse SBL, λ-MYC TG DBLL and MZL-derived cell lines immunoprecipitated with ARF-BP1 antibody on beads; blotted with antibodies to ARF-BP1, ARF, p53, MYC and CTCF; normal IgG as negative control.

Sequences of proteins named here, by UniProt entry; tags and fusion partners are left off.
UniProt Q7TMY8: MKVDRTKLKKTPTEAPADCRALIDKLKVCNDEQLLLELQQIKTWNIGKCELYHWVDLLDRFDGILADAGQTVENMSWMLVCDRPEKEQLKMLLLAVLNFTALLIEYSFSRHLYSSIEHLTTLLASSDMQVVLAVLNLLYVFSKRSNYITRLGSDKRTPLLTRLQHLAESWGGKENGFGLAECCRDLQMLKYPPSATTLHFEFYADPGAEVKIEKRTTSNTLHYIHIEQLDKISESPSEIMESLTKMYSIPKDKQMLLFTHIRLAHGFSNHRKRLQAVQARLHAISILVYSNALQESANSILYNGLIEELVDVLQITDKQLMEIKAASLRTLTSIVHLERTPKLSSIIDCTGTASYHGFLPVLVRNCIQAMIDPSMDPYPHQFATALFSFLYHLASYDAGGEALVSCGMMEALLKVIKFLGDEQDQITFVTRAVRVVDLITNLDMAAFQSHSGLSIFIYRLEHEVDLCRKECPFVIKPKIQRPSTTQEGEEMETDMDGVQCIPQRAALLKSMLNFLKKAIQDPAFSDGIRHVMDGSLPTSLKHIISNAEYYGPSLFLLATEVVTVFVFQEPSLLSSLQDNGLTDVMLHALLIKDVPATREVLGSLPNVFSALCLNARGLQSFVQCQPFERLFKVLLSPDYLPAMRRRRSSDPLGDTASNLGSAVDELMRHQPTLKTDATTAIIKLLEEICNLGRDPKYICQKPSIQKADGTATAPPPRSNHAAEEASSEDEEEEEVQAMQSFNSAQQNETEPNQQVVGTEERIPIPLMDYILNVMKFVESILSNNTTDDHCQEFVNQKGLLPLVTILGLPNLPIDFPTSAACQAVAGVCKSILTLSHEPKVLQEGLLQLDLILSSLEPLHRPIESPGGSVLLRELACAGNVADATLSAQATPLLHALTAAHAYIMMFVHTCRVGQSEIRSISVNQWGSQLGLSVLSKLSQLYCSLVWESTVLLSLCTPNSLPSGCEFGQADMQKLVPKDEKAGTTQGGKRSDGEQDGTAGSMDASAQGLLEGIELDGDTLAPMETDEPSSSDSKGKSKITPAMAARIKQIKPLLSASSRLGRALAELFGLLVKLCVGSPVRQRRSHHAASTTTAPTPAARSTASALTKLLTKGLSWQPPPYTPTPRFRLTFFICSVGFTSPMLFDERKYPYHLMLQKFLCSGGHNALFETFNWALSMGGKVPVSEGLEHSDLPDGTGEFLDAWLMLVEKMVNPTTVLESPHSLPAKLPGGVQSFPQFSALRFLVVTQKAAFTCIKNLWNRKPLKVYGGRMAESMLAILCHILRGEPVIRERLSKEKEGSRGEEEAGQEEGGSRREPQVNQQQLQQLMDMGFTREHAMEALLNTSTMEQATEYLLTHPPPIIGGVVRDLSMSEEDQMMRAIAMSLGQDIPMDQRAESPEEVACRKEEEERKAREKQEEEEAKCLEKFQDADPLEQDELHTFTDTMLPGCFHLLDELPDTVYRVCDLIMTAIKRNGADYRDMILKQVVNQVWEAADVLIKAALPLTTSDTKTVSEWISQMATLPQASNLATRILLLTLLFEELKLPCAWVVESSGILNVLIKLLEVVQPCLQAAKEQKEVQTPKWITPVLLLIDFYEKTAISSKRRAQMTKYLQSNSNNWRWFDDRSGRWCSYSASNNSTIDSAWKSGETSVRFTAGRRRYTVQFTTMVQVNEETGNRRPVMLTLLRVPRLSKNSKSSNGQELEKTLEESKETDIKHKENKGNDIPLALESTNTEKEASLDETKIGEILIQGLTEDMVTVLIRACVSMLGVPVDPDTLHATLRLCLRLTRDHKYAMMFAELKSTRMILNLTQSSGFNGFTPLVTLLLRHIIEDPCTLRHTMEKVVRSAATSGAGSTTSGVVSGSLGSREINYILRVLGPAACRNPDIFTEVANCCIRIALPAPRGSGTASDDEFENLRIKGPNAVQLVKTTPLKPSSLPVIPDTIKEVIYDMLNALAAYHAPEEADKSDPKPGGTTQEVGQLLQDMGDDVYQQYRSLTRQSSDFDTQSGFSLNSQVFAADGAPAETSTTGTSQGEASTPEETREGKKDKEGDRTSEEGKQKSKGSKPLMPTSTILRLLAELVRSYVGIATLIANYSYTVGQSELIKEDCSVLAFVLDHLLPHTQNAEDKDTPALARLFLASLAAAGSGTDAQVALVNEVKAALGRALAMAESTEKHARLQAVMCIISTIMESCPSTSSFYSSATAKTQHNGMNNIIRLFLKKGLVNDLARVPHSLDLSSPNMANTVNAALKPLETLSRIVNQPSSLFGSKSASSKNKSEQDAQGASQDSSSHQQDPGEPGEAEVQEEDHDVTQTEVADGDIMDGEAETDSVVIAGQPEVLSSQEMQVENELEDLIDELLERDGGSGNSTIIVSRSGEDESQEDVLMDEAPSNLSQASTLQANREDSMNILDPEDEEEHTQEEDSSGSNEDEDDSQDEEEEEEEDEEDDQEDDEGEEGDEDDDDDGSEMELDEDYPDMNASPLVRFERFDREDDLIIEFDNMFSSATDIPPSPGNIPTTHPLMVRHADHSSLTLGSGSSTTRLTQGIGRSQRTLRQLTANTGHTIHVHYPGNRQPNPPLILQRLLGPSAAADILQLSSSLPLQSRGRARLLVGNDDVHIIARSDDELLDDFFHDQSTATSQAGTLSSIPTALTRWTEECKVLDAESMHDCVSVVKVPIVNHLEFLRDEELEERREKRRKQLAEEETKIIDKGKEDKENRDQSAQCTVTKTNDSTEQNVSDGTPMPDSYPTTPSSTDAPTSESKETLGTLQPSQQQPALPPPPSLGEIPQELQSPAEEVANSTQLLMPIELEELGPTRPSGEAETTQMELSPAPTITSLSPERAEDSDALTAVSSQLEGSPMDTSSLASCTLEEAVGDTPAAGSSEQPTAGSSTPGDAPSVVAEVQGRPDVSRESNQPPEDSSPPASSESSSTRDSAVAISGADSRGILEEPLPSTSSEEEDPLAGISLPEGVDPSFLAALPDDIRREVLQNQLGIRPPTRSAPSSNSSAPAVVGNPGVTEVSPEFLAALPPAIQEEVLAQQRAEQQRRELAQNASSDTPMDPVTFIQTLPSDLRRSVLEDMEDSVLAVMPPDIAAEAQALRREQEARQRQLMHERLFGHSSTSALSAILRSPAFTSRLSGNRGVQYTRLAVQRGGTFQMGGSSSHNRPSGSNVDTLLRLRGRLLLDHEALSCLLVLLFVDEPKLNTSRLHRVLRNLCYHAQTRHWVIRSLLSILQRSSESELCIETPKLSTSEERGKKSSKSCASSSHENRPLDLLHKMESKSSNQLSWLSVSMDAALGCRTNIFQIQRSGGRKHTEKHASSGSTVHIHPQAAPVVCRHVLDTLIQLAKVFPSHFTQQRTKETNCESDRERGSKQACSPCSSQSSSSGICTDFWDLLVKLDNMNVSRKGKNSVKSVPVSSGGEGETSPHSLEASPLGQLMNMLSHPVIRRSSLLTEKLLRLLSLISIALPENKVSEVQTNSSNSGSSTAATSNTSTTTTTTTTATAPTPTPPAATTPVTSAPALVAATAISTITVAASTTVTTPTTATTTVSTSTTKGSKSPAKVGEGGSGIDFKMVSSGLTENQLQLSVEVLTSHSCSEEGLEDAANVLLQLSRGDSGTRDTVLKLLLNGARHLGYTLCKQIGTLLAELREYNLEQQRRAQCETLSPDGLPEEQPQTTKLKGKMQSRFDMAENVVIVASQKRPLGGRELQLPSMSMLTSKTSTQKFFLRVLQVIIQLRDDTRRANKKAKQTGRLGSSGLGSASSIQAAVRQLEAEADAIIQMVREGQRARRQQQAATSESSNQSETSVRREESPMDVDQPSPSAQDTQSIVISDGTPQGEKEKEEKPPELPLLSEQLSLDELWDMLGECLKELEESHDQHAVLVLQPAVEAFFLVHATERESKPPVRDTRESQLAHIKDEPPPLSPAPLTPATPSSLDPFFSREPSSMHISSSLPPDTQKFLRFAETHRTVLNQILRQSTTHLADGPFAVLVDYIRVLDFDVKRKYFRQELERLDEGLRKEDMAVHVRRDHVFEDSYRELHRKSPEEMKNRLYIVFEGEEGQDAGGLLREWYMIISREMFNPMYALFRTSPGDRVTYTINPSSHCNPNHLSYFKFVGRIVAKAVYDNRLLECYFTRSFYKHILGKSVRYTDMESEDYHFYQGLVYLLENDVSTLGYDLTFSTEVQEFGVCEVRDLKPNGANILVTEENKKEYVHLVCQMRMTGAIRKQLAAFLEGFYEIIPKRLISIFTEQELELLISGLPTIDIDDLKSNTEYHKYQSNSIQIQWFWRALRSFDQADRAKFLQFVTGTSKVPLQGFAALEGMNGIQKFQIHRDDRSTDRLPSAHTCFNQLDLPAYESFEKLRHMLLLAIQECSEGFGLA
UniProt P28574: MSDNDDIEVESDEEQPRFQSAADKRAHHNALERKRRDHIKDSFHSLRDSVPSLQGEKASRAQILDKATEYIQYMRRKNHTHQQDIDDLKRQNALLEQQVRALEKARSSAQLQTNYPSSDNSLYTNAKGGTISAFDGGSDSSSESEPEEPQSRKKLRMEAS
UniProt P01106: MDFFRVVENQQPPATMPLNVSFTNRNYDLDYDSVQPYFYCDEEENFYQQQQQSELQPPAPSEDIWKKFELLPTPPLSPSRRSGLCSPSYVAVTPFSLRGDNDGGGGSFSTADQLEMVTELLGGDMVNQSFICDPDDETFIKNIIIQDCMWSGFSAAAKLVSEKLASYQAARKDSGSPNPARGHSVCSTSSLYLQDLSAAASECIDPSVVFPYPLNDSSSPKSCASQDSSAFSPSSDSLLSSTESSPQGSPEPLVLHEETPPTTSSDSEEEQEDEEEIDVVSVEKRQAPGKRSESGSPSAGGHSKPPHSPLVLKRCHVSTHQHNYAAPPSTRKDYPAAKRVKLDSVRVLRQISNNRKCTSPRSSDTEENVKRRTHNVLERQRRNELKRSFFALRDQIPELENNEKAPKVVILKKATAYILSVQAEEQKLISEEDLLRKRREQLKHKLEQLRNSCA
UniProt P01108: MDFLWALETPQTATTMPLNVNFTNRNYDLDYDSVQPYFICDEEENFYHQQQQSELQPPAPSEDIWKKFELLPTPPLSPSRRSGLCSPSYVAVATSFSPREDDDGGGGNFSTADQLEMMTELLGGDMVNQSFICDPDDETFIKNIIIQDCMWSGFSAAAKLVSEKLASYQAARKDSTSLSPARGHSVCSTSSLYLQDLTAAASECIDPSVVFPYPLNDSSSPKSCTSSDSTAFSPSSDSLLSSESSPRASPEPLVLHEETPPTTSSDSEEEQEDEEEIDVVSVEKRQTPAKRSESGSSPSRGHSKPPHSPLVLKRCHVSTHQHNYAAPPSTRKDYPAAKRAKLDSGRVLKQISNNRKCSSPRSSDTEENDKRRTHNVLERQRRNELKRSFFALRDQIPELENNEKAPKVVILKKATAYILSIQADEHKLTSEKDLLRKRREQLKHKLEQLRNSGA
UniProt P02340: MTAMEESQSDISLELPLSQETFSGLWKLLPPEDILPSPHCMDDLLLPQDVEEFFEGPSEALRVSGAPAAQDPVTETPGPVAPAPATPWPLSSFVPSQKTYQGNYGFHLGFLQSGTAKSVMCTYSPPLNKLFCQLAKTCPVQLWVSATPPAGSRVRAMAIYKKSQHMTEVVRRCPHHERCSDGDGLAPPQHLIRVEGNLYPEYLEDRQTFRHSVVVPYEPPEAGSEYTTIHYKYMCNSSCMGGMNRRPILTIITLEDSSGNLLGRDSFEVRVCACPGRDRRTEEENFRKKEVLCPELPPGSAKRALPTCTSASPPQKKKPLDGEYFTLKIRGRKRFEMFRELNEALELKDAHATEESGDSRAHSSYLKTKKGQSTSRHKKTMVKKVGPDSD

The target of test [2] is ARF-BP1, endogenous in P493-6 human B cells (human (endogenous in P493-6)) (UniProt Q7Z6Z7). Description: co-IP; protein extracts of P493-6 cells with MYC on or off precipitated with antibodies to MAX, blotted with antibodies to ubiquitin or MYC; MYC+ cells also treated with ARF-BP1-specific or control siRNA.
The target of test [3] is T1, full length CTCF (pull-down construct) (UniProt P49711).
T1 sequence: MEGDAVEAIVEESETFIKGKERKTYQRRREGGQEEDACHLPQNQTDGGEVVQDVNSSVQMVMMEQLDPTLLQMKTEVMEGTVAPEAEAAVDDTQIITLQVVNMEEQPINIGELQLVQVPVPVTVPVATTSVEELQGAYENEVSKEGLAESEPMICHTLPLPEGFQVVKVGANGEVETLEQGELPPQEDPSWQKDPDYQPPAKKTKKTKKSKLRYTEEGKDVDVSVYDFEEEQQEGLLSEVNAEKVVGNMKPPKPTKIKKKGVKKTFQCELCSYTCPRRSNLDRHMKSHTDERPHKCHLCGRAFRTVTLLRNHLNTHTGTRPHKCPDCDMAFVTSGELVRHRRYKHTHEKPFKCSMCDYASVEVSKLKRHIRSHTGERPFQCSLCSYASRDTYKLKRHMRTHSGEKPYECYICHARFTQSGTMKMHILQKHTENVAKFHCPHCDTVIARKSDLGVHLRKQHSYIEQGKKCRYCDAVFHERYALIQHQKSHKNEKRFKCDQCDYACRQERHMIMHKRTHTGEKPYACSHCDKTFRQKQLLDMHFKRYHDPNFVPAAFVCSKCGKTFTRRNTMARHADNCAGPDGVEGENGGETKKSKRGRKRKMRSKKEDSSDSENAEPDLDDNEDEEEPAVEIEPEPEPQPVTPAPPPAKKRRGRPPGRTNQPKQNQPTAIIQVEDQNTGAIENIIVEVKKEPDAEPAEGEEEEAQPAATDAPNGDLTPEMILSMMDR
The experiment in a line: pull-down; data not shown; full length CTCF or the central CTCF zinc finger region as bait; source of ARF-BP1 not told.

Results are given in words; binding and its absence hold for the method and conditions named. Binding seen in cells or lysates may run through a third protein. Some entries that bind do so weakly or less than the wild type.

Consider “MAX in mouse DBLL cells (from UniProt P28574 1-160)”, for which the binding result in test [1] was “binds”.

With “MYC in P493-6 cells (conditional tetracycline-regulated MYC) (from UniProt P01106 1-454)”, the binding entry in test [2] is “binds”.

Take “MYC, endogenous in mouse SBL and MZL cell lines (from UniProt P01108 1-454)”: the binding result in test [1] is on record as “binds”. For the molecule “p53, endogenous in mouse B cell lymphoma cell lines (from UniProt P02340 1-390)”, the binding result in test [1] is “binds”. Consider “ARF-BP1 pulled down by CTCF constructs (data not shown) (from UniProt Q7Z6Z7 1-4374) (enzyme)”, for which the binding result in test [3] is on record as “binds”.

B1: ARF, endogenous in mouse B cell lymphoma cell lines (protein, UniProt Q64364 1-169)
chain: MGRRFLVTVRIQRAGRPLQERVFLVKFVRSRRPRTASCALAFVNMLLRLERILRRGPHRNPGPGDDDGQRSRSSSSAQLRCRFELRGPHYLLPPGARRSAGRLPGHAGGAARVRGSAGCARCLGSPAARLGPRAGTSRHRAIFAFRWVLFVFRWVVFVYRWERRPDRRA
As to B1, the binding result in test [1] was “binds”.

B2: CTCF, endogenous in mouse B cell lymphoma cell lines (protein, UniProt Q61164 1-736)
chain: MEGEAVEAIVEESETFIKGKERKTYQRRREGGQEEDACHLPQNQTDGGEVVQDVNSSVQMVMMEQLDPTLLQMKTEVMEGTVAPEAEAAVDDTQIITLQVVNMEEQPINIGELQLVQVPVPVTVPVATTSVEELQGAYENEVSKEGLAESEPMICHTLPLPEGFQVVKVGANGEVETLEQGELPPQEDSSWQKDPDYQPPAKKTKKTKKSKLRYTEEGKDVDVSVYDFEEEQQEGLLSEVNAEKVVGNMKPPKPTKIKKKGVKKTFQCELCSYTCPRRSNLDRHMKSHTDERPHKCHLCGRAFRTVTLLRNHLNTHTGTRPHKCPDCDMAFVTSGELVRHRRYKHTHEKPFKCSMCDYASVEVSKLKRHIRSHTGERPFQCSLCSYASRDTYKLKRHMRTHSGEKPYECYICHARFTQSGTMKMHILQKHTENVAKFHCPHCDTVIARKSDLGVHLRKQHSYIEQGKKCRYCDAVFHERYALIQHQKSHKNEKRFKCDQCDYACRQERHMIMHKRTHTGEKPYACSHCDKTFRQKQLLDMHFKRYHDPNFVPAAFVCSKCGKTFTRRNTMARHADNCAGPDGVEGENGGETKKSKRGRKRKMRSKKEDSSDSEENAEPDLDDNEEEEEPAVEIEPEPEPQPQPPPPPQPVAPAPPPAKKRRGRPPGRTNQPKQNQPTAIIQVEDQNTGAIENIIVEVKKEPDAEPAEGEEEEAQAATTDAPNGDLTPEMILSMMDR
Consider B2, for which, in test [1], the binding entry is “binds”.

For the origin of these results see PMC3382761.
